PubChem BioAssay AID652259 – Drosophila RNAi Screening Center | 2013
The screen tested about 22,000 reagents; below is a random part of those that have a named target and a result. In the full data, 233 (1.1%) were called active. 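Light values are raw, unnormalised plate reads; the ratio scores behind the reporter calls were not deposited.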 Unmarked entries are inactive. Names joined by + are all predicted targets of the reagent. Not stated in the record: the amount of reagent, the time to read-out, the dose of the treatment.

Test: 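Genome-wide hunt for genes that control Wingless pathway activity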 (primary screen)
Cells: Drosophila clone 8 imaginal disc epithelial cells
Reagent: long dsRNA against Drosophila genes
Treatment: pathway stimulated by co-transfected Wingless expression plasmid
Read-out: 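Firefly luciferase from a tcf-site Wingless reporter, measured alongside co-transfected Renilla luciferase that tracks transfection; pathway stimulated by a Wingless plasmid; the firefly-to-Renilla ratio is not deposited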
Scale: firefly reporter light: higher = more Wg reporter light, before normalisation; Renilla control light: higher = more transfected or surviving cells
Hit rule: 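Strong candidates differ from their plate mean by at least two out of four per-plate statistical tests; weak candidates meet just one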
Meaning of the calls: active = candidate regulator (raises or lowers reporter); inactive = not a candidate

| target | amplicon | firefly reporter light, replicate 1 | firefly reporter light, replicate 2 | Renilla control light, replicate 1 | Renilla control light, replicate 2 |
| --- | --- | --- | --- | --- | --- |
| crn (crooked neck) | DRSC18184 | 21303 | – | 11672 | – |
| crn (crooked neck) | DRSC18185 | 23405 | – | 12260 | – |
| crn (crooked neck) | DRSC18755 | 3248 | 6048 | 629 | 1856 |
| CG31457 | DRSC22935 | 8.13e5 | 7.94e5 | 4.58e5 | 1.37e5 |
| CG14301 | DRSC14780 | 15520 | – | 4252 | – |
| CG14662 + asRNA:CR43478 | DRSC12248 | 14469 | – | 3840 | – |
| CG4372 | DRSC04466 | 3536 | 4262 | 1047 | 2188 |
| NHP2 | DRSC11229 | 7434 | – | 2295 | – |
| Cul6 (Cullin 6) | DRSC09830 | 2982 | – | 1505 | – |
| Gr98c (Gustatory receptor 98c) | DRSC22212 | 7.15e5 | 6.82e5 | 3.40e5 | 3.25e5 |
| l(2)k09022 (lethal (2) k09022) | DRSC02108 | 13965 | – | 5057 | – |
| GABA-B-R3 (metabotropic GABA-B receptor subtype 3) | DRSC00561 | 2760 | 6426 | 868 | 2291 |
| CG10444 | DRSC05990 | 12444 | – | 2461 | – |
| CG6661 + asRNA:CR42871 | DRSC10687 | 5719 | – | 2896 | – |
| CG12115 | DRSC17811 | 30501 | – | 17747 | – |
| Est-P (Esterase P) | DRSC11163 | 6020 | – | 1803 | – |
| Samtor (S-adenosylmethionine sensor upstream of TORC1) | DRSC04390 | 11832 | – | 3900 | – |
| CG3918 | DRSC18331 | 2726 | 4229 | 364 | 618 |
| CG46301 | DRSC01916 | 4289 | 7780 | 1400 | 3572 |

Reprinted from above, 5 entries:
| target | amplicon | firefly reporter light, replicate 1 | firefly reporter light, replicate 2 | Renilla control light, replicate 1 | Renilla control light, replicate 2 |
| --- | --- | --- | --- | --- | --- |
| CG6661 + asRNA:CR42871 | DRSC10687 | 5719 | – | 2896 | – |
| CG12115 | DRSC17811 | 30501 | – | 17747 | – |
| Est-P (Esterase P) | DRSC11163 | 6020 | – | 1803 | – |
| Samtor (S-adenosylmethionine sensor upstream of TORC1) | DRSC04390 | 11832 | – | 3900 | – |
| CG3918 | DRSC18331 | 2726 | 4229 | 364 | 618 |

More results:
| target | amplicon | firefly reporter light, replicate 1 | firefly reporter light, replicate 2 | Renilla control light, replicate 1 | Renilla control light, replicate 2 |
| --- | --- | --- | --- | --- | --- |
| S (Star) | DRSC00785 | 2530 | 5057 | 811 | 1388 |
| Cyp312a1 (Cytochrome P450 312a1) | DRSC11128 | 5012 | – | 2547 | – |
| pon (partner of numb) | DRSC18823 | 20608 | – | 8890 | – |
| CG43315 | DRSC06296 | 6612 | – | 2957 | – |
| CG13392 | DRSC02262 | 2183 | 6458 | 922 | 2489 |
| CG9356 | DRSC16476 | 5671 | – | 1736 | – |
| CG15649 | DRSC04240 | 2868 | 11979 | 873 | 3482 |
| Rpn13 (Regulatory particle non-ATPase 13) | DRSC06379 | 5616 | – | 1585 | – |
| CG8032 | DRSC16365 | 13409 | – | 3335 | – |
| CG1317 | DRSC08305 | 16875 | – | 4007 | – |
